For at least one entry, the source does not settle the construct or the ends of the probe. For part of these data: The comparison behind a weaker result is the experiment's own reference, which may not be listed here. For part of these data: At least one verdict rests on a figure or table, not on a statement of the authors.
Experiments:
[1] = target: UAP56 (Homo sapiens) (UniProt Q13838); assay: pull-down (RNA unclamping); details: ATP pre-clamped, challenged with TREX-2M, UAP56 removed almost completely; AdML pull-down: 20 mM HEPES pH 7.9, 100 mM KCl, 2 mM MgCl2, 5% glycerol, 0.1% Igepal, 1 mM AMP-PNP, RT; recombinant protein; residues 1-428
[2] = target: UAP56 (Homo sapiens) (UniProt Q13838); assay: pull-down; details: ATP pre-clamped on bead-bound RNA, no challenger; AdML pull-down: 20 mM HEPES pH 7.9, 100 mM KCl, 2 mM MgCl2, 5% glycerol, 0.1% Igepal, 1 mM AMP-PNP, RT; recombinant protein; residues 1-428
[3] = test system: UAP56-N-UBM fusion (Homo sapiens); assay: GCI; details: 1 mM ATP, RNA immobilized, higher affinity than UAP56, Kd only in figure, GCI: 25 mM HEPES pH 7.9, 50 mM KCl, 1 mM MgCl2, 1 mM TCEP, 25 C, unclamping: same with 40 mM KCl, 500 mM KCl washes, recombinant protein, protein details: 10xHis

## UUUUUUUUUUUUUUU [15U RNA]
[1]
  binding result: binds more weakly
[2]
  binding result: binds
[3]
  binding result: binds

Source: paper PMC12823420
